This is an account of results in publication PMC12286604.

The chains behind the UniProt entries cited, without tags or fusion partners.
UniProt P10415: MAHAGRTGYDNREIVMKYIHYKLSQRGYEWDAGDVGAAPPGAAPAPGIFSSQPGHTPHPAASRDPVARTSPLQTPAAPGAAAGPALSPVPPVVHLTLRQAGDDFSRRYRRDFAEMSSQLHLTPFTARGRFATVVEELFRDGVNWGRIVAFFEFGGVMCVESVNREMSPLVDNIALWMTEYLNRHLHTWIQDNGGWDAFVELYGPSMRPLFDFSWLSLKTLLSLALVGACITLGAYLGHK
UniProt Q93034: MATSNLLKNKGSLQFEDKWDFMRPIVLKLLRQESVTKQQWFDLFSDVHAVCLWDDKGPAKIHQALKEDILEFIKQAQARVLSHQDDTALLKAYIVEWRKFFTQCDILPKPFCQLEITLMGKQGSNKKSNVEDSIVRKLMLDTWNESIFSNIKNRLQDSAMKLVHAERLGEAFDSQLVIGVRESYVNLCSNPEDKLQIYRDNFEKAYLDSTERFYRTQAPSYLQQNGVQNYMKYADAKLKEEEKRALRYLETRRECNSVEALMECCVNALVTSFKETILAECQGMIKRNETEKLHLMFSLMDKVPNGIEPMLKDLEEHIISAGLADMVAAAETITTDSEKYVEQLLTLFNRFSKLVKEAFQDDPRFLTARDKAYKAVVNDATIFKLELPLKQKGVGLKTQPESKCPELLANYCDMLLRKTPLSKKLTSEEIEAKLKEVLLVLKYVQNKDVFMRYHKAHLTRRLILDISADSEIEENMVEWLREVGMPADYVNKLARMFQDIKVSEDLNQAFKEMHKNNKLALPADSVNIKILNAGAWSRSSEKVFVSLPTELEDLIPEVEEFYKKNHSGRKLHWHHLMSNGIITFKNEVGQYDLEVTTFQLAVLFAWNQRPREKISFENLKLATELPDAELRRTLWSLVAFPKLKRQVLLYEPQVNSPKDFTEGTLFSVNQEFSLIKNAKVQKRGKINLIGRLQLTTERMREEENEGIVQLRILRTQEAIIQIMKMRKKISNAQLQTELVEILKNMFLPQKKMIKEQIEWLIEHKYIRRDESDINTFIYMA
UniProt Q15370: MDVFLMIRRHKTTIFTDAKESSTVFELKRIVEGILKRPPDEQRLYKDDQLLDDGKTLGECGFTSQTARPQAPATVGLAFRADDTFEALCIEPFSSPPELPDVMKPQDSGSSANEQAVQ
UniProt Q07820: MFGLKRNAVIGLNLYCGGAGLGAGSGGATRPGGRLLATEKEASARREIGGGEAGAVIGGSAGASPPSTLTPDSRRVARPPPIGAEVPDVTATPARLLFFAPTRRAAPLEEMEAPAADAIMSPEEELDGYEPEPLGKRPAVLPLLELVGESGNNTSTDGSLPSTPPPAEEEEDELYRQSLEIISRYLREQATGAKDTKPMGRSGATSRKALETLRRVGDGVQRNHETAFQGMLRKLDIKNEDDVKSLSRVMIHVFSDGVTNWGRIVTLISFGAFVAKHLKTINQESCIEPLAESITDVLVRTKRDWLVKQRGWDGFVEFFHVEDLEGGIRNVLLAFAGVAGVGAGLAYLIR
UniProt Q9UBF6: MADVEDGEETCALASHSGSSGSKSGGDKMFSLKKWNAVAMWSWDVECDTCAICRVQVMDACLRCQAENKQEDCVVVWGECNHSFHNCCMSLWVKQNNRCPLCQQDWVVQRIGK

No constants are given. Whether binding was seen depends on the method and setting. Binding seen in cells or lysates may run through a third protein. Some results given as binding are weak or reduced against the parent protein; the word gives no strength.

Assay [1] concerns the target T1, WSB2 (WD repeat and SOCS box-containing protein 2), wild type, transfected (UniProt Q9NYS7).
T1 sequence: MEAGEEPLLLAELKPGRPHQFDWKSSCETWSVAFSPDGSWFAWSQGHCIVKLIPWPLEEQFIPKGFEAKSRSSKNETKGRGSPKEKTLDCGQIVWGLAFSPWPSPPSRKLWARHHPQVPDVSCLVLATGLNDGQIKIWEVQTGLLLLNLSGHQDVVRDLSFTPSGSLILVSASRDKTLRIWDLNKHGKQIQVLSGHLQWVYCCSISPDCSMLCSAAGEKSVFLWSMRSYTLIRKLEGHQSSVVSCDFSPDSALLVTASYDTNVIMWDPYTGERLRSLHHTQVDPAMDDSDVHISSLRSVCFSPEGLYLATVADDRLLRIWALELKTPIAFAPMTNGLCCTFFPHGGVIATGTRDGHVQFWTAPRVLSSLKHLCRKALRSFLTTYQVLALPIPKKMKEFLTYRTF
The experiment in a line: co-IP; semi-endogenous co-IP: anti-FLAG IP from 293T cells transfected with WSB2, endogenous partners detected by western blot.

For assay [2], the target named is T2, NOXA, endogenous (human (endogenous in 293T)) (UniProt Q13794).
T2 sequence: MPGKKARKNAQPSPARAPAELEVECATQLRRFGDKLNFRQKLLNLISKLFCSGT
The experiment in a line: co-IP; endogenous co-IP: IgG or anti-NOXA, anti-MCL-1, anti-BCL-2, anti-BCL-XL or anti-BAD antibodies, 293T whole-cell lysate, western blot.

In the case of “BCL-2, endogenous (from UniProt P10415 1-239)”, the binding entry in assay [1] is reported as “binds”.

Turning to “BCL-XL, endogenous (from UniProt Q07817-1 1-233)”, the binding result in assay [1] was “binds”.

In the case of “Cullin 5, endogenous (from UniProt Q93034 1-780)”, the binding result in assay [1] and in assay [2] was “binds” in each case.

For the substance “Elongin B, endogenous (from UniProt Q15370 1-118)”, the binding result in assay [1] and in assay [2] was “binds” each time.

For the substance “MCL-1, endogenous (from UniProt Q07820 1-350)”, the binding entry in assay [1] is “binds”.

On to “RBX2, endogenous (from UniProt Q9UBF6 1-113)”, for which the binding result in assay [1] and in assay [2] was “binds” throughout.
